Measurements reported in patent US20110009597A1, “RECOMBINANT GANODERMA LUCIDIUM IMMUNOMODULATORY PROTEIN (rLZ-8) AND USES THEREOF” (priority 2008, published 2011).

B1: rLZ-8: Recombinant Ganoderma Lucidum Immune Regulatory Protein expressed in Pichia pastoris (protein, UniProt P14945 2-111, looked up)
Immunomodulatory protein Ling …: SDTALIFRLAWDVKKLSFDYTPNWGRGNPNNFIDTVTFPKVLTDKAYTYRVAVSGRNLGVKPSYAVESDGSQKVNFLEYNSGYGIADTNTIQVFVVDPDTNNDFIIAQWN
B2: Genlei ™ Scimax ™: Recombinant human granulocyte colony-stimulating factor injection (rhG-CSF) (protein, UniProt P09919 31-207, looked up)
Granulocyte …: TPLGPASSLPQSFLLKCLEQVRKIQGDGAALQEKLVSECATYKLCHPEELVLLGHSLGIPWAPLSSCPSQALQLAGCLSQLHSGLFLYQGLLQALEGISPELGPTLDTLQLDVADFATTIWQQMEELGMAPALQPTQGAMPAFASAFQRRAGGVLVASHLQSFLEVSYRVLRHLAQP

System: WBC
Test: Cyclophosphamide low-leucocyte mice model, WBC
Type: in vivo
Experimental: rLZ-8 preparation of sterile saline. Divide them into 5 μg·kg^−1, 2.5 μg√kg^−1, 1.25 μg·kg^−1, 0.62 μg·kg^−1 dose groups.
Genlei™ Scimax™ [Recombinant human granulocyte colony-stimulating factor injection (rhG-CSF)], production lot: 20060403; 75 μg/vial is prepared with sterile normal saline into the preparation of 3.2 μg·kg^−1, 0.2 ml/vial.
Cyclophosphamide (CP) for injection (the production lot number 050216; 200 mg/vial) is prepared with sterile normal saline into the preparation of 12.5 mg·kg^−1, 0.2 ml/vial.
Normal control group, several protein dose groups, positive control group (Genlei™ Scimax™).
Excluding the normal control group (given same normal saline), each group of mice were given tail vein injection of cyclophosphamide, […], 0.2 ml/vial, for 3 consecutive days. On 3rd day, rat tail venous blood sampling, sent to Jilin University First Hospital laboratory, cell analyze the number of WBC. After successful modeling, they were given to the above groups respective dose of rLZ-8 and positive drugs (Genlei™ Scimax™) treatment, the normal control group and CP groups were given same normal saline, on the 3rd, 7th and 14th day of the treatment to draw venous blood from mice tail respectively, sent to Jilin University First Hospital testing the numbers of WBC. Compare WBC changes before and after the treatment for analysis of drug efficacy.

Molecule	WBC, After modeling (rLZ-8 0.62 μg·kg−1 group)	WBC, After modeling (rLZ-8 1.25 μg·kg−1 group)	WBC, After modeling (rLZ-8 2.5 μg·kg−1 group)	WBC, After modeling (rLZ-8 5 μg·kg−1 group)	WBC, After modeling (Genlei Scimax 3.2 μg·kg−1 group)
B1	1.4 ± 0.45	1.7 ± 0.45	1.5 ± 0.54	1.3 ± 0.32	–
B2	–	–	–	–	1.5 ± 0.35
